# Substitutions are numbered along the chain they refer to. The entries are a selection whose mix differs from that of the whole data set. The calls were merged from several studies; some rest on single wells. This is one part of the list.
# Chains of the proteins cited; added tags and fusions are not shown. Chains listed by the source or under a name are the forms on record and can include a tag or linker.
# O52E8, as listed by the source: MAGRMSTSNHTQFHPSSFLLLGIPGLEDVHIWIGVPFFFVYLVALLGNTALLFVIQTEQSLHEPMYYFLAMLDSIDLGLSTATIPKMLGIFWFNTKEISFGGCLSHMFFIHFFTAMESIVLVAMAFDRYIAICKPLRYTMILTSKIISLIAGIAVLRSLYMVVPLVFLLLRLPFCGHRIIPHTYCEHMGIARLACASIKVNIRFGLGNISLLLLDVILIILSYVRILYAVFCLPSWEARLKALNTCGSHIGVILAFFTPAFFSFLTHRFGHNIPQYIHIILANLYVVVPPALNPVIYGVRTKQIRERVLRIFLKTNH
# O52E2, as listed by the source: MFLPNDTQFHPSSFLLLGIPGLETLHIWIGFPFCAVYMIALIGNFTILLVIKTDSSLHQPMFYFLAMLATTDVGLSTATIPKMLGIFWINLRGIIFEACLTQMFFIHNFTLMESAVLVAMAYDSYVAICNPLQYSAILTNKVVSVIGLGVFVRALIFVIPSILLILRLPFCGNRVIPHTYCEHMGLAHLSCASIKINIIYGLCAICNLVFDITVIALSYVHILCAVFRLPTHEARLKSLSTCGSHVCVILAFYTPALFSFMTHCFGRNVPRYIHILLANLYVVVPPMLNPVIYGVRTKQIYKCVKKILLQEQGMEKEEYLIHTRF
# O51L1, as listed by the source: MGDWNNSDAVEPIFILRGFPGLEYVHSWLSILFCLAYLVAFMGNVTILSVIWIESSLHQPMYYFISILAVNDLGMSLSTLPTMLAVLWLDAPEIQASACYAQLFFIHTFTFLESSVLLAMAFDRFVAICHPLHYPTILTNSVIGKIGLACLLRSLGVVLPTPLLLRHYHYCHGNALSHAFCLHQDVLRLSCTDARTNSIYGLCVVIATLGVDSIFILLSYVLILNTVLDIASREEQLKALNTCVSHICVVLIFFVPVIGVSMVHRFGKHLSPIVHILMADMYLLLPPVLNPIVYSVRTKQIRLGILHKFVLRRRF
# O51V1, as listed by the source: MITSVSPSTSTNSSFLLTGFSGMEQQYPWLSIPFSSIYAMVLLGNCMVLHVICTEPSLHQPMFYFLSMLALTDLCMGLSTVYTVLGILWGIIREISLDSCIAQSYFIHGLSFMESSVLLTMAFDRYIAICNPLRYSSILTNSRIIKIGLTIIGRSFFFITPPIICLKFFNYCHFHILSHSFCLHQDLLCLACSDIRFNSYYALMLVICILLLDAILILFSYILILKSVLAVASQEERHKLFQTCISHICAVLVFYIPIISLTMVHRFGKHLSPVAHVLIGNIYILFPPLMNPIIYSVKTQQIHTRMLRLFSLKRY
# O52E4, as listed by the source: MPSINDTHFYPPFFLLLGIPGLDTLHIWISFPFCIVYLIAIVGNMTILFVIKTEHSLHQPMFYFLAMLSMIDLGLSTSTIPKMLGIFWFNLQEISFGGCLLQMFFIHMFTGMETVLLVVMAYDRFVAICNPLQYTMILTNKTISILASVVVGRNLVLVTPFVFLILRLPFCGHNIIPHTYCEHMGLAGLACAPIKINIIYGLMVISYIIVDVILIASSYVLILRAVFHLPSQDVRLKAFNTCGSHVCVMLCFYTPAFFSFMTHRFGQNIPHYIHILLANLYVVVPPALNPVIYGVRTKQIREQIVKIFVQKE
# O52E1, as listed by the source: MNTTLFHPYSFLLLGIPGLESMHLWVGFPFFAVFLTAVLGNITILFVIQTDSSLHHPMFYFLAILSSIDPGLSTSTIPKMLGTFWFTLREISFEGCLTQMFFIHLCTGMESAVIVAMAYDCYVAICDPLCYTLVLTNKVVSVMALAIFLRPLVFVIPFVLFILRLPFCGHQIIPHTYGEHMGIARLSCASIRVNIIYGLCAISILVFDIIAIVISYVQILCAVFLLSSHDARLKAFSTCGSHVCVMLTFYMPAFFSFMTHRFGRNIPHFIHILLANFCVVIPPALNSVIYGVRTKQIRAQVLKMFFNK
# O52E5, as listed by the source: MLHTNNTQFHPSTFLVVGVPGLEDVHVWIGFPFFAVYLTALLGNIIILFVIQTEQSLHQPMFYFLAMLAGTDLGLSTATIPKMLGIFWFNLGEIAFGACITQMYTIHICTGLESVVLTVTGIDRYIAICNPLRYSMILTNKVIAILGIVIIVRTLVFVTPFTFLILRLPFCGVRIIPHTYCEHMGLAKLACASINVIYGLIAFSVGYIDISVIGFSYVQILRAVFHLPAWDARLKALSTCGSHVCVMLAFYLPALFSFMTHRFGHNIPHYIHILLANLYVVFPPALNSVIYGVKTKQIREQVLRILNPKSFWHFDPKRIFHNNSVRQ
# Legend:
# Details in all cases: stereoisomer not certain
# O51G1 = tested on: T1, O51G1
# T1 sequence (whole entry): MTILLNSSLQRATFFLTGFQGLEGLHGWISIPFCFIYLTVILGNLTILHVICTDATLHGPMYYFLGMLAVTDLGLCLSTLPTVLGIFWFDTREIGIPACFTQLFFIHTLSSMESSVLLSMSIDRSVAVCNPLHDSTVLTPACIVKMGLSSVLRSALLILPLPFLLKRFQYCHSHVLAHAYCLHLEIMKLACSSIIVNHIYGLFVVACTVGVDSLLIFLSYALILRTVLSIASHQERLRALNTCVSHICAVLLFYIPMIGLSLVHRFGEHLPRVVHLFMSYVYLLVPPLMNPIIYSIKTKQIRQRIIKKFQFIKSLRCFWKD
# Outline: (§1)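 Transient luciferase assays in mammalian cell lines were common, though methods varied by source. The values come from published papers and their supplementary material, with extra details from the original authors when needed. Responsive refers to a measured signal the original authors judged statistically different from baseline, and non-responsive (inactive) to the remainder.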
# O51G2 = tested on: T2, O51G2
# T2 sequence (whole entry): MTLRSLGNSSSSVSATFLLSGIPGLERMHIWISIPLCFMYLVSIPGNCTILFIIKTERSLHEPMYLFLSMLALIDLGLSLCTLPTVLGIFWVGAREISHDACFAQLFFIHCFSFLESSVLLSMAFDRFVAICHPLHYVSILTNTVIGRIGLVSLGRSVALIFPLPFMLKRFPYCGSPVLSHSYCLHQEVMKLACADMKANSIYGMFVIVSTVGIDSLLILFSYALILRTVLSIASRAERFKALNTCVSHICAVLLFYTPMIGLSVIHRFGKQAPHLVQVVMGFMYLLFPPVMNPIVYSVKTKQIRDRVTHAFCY
# Outline: as §1
# O51J1 = tested on: T3, O51J1
# T3 sequence (whole entry): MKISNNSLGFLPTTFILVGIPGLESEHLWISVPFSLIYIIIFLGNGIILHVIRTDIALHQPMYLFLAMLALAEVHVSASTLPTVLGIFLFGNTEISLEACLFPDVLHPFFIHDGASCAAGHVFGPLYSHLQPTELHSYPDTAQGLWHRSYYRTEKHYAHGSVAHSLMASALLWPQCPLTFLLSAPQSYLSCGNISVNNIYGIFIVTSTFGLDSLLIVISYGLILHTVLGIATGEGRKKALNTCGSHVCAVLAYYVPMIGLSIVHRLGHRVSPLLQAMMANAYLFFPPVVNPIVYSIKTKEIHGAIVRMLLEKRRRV
# Outline: as §1
# O51L1 [1] = tested on: T4, O51L1
# T4 sequence (whole entry): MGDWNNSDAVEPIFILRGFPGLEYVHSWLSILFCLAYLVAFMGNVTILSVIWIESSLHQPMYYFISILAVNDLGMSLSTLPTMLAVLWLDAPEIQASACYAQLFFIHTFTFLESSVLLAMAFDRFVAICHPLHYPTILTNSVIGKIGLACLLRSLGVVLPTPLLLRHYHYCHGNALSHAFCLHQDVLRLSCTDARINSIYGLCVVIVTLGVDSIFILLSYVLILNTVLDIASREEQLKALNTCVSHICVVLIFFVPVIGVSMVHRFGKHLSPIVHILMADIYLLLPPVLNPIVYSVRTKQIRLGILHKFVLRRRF
# Outline: as §1
# O51L1 [2] = tested on: T5, O51L1; remark: listed apart in the source
# T5 sequence (whole entry): T4 sequence (whole entry) with I196T, V207A, I281M
# Outline: as §1
# O51M1 = tested on: T6, O51M1
# T6 sequence (whole entry): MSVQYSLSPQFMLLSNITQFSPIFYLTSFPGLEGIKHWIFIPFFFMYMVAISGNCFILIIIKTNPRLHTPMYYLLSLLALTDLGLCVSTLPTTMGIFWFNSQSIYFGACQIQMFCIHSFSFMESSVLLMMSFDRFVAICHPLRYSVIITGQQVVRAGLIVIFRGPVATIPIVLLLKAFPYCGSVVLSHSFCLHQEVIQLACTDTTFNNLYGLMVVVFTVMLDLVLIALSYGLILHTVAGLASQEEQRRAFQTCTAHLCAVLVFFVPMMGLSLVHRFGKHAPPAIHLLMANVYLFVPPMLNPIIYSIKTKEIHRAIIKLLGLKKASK
# Outline: as §1
# O51Q1 = tested on: T7, O51Q1
# T7 sequence (whole entry): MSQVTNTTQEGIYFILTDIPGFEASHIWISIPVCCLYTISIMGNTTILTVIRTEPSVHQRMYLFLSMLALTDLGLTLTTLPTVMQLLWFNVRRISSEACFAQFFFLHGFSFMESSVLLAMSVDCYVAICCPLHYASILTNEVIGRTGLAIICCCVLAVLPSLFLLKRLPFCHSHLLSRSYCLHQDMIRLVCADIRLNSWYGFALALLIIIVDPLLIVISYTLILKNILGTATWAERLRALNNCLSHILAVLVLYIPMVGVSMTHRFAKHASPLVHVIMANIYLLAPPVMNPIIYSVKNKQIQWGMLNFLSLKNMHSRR
# Outline: as §1
# O51T1 = tested on: T8, O51T1
# T8 sequence (whole entry): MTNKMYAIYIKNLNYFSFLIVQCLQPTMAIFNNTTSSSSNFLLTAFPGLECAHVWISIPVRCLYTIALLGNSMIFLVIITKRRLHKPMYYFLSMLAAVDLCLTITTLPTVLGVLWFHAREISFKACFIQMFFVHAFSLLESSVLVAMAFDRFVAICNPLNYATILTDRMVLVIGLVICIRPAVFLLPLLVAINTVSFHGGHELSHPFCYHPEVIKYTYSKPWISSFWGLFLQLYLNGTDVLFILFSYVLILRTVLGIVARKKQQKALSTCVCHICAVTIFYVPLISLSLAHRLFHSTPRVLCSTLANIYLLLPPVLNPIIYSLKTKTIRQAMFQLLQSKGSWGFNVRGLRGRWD
# Outline: as §1
# O51V1 [3] = tested on: T9, O51V1
# T9 sequence (whole entry): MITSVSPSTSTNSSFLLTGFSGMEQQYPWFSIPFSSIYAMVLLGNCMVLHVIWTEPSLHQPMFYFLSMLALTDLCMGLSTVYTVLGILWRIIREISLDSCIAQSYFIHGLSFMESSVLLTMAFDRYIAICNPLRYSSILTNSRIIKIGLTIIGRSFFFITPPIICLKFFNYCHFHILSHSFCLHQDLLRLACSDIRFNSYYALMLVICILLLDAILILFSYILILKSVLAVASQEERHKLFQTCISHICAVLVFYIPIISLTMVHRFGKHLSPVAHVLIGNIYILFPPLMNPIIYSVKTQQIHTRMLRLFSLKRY
# Outline: as §1
# O51V1 [4] = tested on: T10, O51V1; remark: listed apart in the source
# T10 sequence (whole entry): T9 sequence (whole entry) with F30L, W53C, R90G, R189C
# Outline: as §1
# O52A1 = tested on: T11, O52A1
# T11 sequence (whole entry): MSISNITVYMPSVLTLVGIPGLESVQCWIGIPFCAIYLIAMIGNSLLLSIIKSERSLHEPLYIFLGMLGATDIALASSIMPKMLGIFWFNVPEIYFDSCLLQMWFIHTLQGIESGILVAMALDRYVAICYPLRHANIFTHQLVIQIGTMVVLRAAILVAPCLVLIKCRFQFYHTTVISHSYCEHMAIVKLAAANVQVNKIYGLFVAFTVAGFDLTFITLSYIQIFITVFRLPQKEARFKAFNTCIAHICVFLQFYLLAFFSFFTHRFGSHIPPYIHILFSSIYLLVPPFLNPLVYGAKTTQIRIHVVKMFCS
# Outline: as §1
# O52B2 = tested on: T12, O52B2
# T12 sequence (whole entry): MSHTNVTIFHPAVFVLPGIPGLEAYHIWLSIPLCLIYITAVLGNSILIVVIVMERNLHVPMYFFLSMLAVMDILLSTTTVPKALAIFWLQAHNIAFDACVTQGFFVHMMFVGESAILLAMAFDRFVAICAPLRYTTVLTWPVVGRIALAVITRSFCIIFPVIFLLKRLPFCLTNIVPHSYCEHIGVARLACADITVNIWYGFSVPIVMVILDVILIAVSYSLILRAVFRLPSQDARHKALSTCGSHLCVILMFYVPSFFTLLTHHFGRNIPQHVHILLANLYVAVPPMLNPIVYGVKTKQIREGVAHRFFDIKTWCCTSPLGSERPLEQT
# Outline: as §1
# O52B6 = tested on: T13, O52B6
# T13 sequence (whole entry): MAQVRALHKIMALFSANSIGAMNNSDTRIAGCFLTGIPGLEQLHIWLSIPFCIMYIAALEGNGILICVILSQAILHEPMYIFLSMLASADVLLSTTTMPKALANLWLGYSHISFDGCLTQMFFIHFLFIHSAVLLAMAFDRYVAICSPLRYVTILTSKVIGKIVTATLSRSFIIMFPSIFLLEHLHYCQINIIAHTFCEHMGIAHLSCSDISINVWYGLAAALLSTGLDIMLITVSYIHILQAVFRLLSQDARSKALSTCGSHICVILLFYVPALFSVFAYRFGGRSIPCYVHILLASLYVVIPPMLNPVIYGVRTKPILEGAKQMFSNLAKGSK
# Outline: as §1
# O52E1 = tested on: O52E1
# Outline: as §1
# O52E2 = tested on: O52E2
# Outline: as §1
# O52E4 = tested on: O52E4
# Outline: as §1
# O52E5 = tested on: O52E5
# Outline: as §1
# O52E8 = tested on: O52E8
# Outline: as §1
# O52I2 = tested on: T14, O52I2
# T14 sequence (whole entry): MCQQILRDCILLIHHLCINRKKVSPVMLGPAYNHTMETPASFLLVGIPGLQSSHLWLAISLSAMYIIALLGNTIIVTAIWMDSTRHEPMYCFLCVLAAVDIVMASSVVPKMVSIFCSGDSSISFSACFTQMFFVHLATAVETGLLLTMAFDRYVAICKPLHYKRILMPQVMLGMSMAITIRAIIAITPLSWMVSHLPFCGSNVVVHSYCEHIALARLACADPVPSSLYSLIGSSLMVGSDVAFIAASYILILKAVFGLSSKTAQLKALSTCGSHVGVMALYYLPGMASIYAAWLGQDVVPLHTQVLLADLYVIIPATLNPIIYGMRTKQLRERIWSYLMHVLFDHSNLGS
# Outline: as §1
# O52H1 = tested on: T15, O52H1
# T15 sequence (whole entry): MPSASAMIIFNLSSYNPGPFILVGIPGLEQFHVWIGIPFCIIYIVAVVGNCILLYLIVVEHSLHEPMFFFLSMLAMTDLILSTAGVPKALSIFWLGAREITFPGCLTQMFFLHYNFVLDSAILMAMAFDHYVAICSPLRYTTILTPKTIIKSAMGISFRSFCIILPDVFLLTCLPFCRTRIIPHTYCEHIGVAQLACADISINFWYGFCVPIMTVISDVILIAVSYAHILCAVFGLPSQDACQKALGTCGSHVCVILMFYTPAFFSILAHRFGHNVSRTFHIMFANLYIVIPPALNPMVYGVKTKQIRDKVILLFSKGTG
# Outline: as §1
# 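Note: active if original authors judged signal statistically different from baseline.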
SMILES,odorant receptor agonist call (O51G1),odorant receptor agonist call (O51G2),odorant receptor agonist call (O51J1),odorant receptor agonist call (O51L1 [1]),odorant receptor agonist call (O51L1 [2]),odorant receptor agonist call (O51M1),odorant receptor agonist call (O51Q1),odorant receptor agonist call (O51T1),odorant receptor agonist call (O51V1 [3]),odorant receptor agonist call (O51V1 [4]),odorant receptor agonist call (O52A1),odorant receptor agonist call (O52B2),odorant receptor agonist call (O52B6),odorant receptor agonist call (O52E1),odorant receptor agonist call (O52E2),odorant receptor agonist call (O52E4),odorant receptor agonist call (O52E5),odorant receptor agonist call (O52E8),odorant receptor agonist call (O52I2),odorant receptor agonist call (O52H1)
CCCCCCCCOC(C)=O,inactive,inactive,inactive,inactive,inactive,inactive,inactive,inactive,inactive,inactive,inactive,inactive,inactive,inactive,inactive,inactive,inactive,inactive,inactive,
CCCCCC(=O)O,inactive,inactive,inactive,active,active,inactive,inactive,inactive,inactive,inactive,inactive,inactive,inactive,inactive,inactive,inactive,inactive,inactive,inactive,
CC(=O)C(C)=O,inactive,inactive,inactive,inactive,inactive,active,inactive,inactive,inactive,inactive,inactive,inactive,inactive,inactive,inactive,inactive,active,inactive,inactive,active
CC(C)CC(=O)O,inactive,inactive,inactive,inactive,inactive,active,inactive,inactive,inactive,inactive,inactive,inactive,inactive,inactive,inactive,inactive,inactive,inactive,inactive,
CC=Cc1ccc(O)c(OC)c1,inactive,inactive,active,inactive,inactive,active,inactive,inactive,active,active,inactive,active,inactive,inactive,active,active,active,inactive,inactive,
C=CC(C)(O)CCC=C(C)C (centres undefined),inactive,inactive,inactive,inactive,inactive,active,inactive,inactive,inactive,inactive,inactive,inactive,inactive,inactive,inactive,inactive,inactive,inactive,inactive,
CCCCCCCCCC=O,inactive,inactive,inactive,inactive,inactive,active,inactive,inactive,inactive,inactive,inactive,inactive,inactive,inactive,inactive,inactive,active,inactive,inactive,
CC(C)C(=O)O,inactive,inactive,inactive,inactive,inactive,inactive,inactive,inactive,inactive,inactive,inactive,inactive,inactive,inactive,inactive,inactive,inactive,inactive,inactive,
CCC1(O)C2(C)CCC(C2)C1(C)C (centres undefined),inactive,inactive,inactive,inactive,inactive,inactive,inactive,inactive,inactive,inactive,inactive,inactive,inactive,inactive,inactive,inactive,inactive,inactive,inactive,
CCCCCCCOC(C)=O,inactive,inactive,inactive,inactive,inactive,inactive,inactive,inactive,inactive,inactive,inactive,inactive,inactive,inactive,inactive,inactive,active,inactive,inactive,
CC1=CCC(C(C)(C)O)CC1 (centres undefined),inactive,inactive,inactive,inactive,inactive,inactive,inactive,inactive,inactive,inactive,inactive,inactive,inactive,inactive,inactive,inactive,inactive,inactive,inactive,
COC(=O)c1ccccc1O,inactive,inactive,inactive,inactive,inactive,inactive,inactive,inactive,inactive,inactive,inactive,inactive,inactive,inactive,inactive,inactive,inactive,inactive,inactive,

# Two compounds from above, showing only odorant receptor agonist call (O51J1):
SMILES | odorant receptor agonist call (O51J1)
CCC1(O)C2(C)CCC(C2)C1(C)C (centres undefined) | inactive
CCCCCCCOC(C)=O | inactive
